For one assay, the target named is TAP-tagged hnRNPA1 (UniProt P09651). The assay can be described thus: affinity purification with mass spectrometry; Tandem Affinity Purification with TAP-hnRNPA1 as bait from HEK293 cells in the absence and presence of FGF-2 for 10 min; rabbit IgG agarose, TEV elution, streptavidin beads; SDS-PAGE, LC/MS/MS.
Assay [1] addresses TAP-tagged S6K2 (ribosomal S6 kinase 2) (UniProt Q9UBS0). The assay can be described thus: affinity purification with mass spectrometry; Tandem Affinity Purification with TAP-S6K2 as bait from HEK293 cells treated ± FGF-2 for 10 min; rabbit IgG agarose, TEV elution, streptavidin beads; SDS-PAGE, LC/MS/MS.

The chains behind the UniProt entries cited, without tags or fusion partners.
UniProt P09651: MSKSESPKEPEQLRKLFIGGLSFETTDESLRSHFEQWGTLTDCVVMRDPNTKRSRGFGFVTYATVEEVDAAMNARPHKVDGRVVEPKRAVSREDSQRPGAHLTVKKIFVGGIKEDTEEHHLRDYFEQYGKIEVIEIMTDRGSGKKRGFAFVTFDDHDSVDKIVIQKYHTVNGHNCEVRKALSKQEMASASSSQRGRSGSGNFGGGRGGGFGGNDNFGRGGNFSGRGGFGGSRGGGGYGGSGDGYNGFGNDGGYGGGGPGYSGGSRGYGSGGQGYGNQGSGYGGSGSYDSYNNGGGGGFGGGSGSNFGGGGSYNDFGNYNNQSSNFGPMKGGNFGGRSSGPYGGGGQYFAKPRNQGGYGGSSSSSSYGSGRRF
UniProt Q9UBS0: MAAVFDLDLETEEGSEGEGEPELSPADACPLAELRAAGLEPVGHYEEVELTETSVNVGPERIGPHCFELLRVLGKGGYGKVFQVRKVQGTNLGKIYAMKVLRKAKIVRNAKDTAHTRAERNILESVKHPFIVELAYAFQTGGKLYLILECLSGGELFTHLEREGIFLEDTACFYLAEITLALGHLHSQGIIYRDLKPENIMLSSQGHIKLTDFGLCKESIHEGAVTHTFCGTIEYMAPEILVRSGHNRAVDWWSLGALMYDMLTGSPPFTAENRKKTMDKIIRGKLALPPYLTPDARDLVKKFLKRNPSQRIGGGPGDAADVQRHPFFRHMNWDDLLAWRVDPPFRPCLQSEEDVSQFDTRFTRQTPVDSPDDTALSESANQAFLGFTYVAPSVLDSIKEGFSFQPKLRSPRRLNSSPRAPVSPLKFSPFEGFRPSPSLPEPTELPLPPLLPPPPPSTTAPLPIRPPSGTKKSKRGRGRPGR
UniProt P62258: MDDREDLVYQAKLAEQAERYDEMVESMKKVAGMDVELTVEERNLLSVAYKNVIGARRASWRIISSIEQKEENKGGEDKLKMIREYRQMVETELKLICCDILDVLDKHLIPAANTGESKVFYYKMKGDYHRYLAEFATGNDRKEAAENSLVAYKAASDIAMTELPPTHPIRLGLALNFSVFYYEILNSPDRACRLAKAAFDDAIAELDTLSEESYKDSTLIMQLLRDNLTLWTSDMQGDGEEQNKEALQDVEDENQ
UniProt P63279: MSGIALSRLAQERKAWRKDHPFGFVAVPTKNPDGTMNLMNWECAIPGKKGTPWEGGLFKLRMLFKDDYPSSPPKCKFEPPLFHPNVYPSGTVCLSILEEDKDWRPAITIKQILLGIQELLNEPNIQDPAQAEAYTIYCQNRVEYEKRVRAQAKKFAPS
UniProt P31947: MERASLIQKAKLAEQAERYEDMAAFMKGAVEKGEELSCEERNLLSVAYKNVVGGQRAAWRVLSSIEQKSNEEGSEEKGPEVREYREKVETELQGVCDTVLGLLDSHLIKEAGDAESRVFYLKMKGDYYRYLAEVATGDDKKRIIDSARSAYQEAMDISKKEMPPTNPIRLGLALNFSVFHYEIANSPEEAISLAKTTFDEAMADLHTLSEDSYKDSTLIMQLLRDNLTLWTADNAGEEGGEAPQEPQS

These are yes or no findings as the source states them, for the method shown. Binding seen in cells or lysates may run through a third protein. Here binding means that the protein was enriched with, or labelled near, the bait; the list need not be complete.

As to “14-3-3ϵ (endogenous) (from UniProt P62258 1-255)”, in the assay with TAP-tagged hnRNPA1, the binding entry is “binds”.

On to “SUMO conjugating enzyme (UBC9) (from UniProt P63279 1-158)”, for which the binding entry with TAP-tagged hnRNPA1 is “binds”.

As to “14-3-3σ (endogenous) (from UniProt P31947 1-248)”, the binding result with TAP-tagged hnRNPA1 is reported as “binds”.

B1: SUMO activating enzyme 1 (SAE1) (enzyme, UniProt Q9UBE0 1-346)
chain: MVEKEEAGGGISEEEAAQYDRQIRLWGLEAQKRLRASRVLLVGLKGLGAEIAKNLILAGVKGLTMLDHEQVTPEDPGAQFLIRTGSVGRNRAEASLERAQNLNPMVDVKVDTEDIEKKPESFFTQFDAVCLTCCSRDVIVKVDQICHKNSIKFFTGDVFGYHGYTFANLGEHEFVEEKTKVAKVSQGVEDGPDTKRAKLDSSETTMVKKKVVFCPVKEALEVDWSSEKAKAALKRTTSDYFLLQVLLKFRTDKGRDPSSDTYEEDSELLLQIRNDVLDSLGISPDLLPEDFVRYCFSEMAPVCAVVGGILAQEIVKALSQRDPPHNNFFFFDGMKGNGIVECLGPK
Take B1: the binding entry in the assay with TAP-tagged hnRNPA1 is listed as “binds”.

B2: SUMO activating enzyme 2 (SAE2/UBA2) (enzyme, UniProt Q9UBT2 1-640)
chain: MALSRGLPRELAEAVAGGRVLVVGAGGIGCELLKNLVLTGFSHIDLIDLDTIDVSNLNRQFLFQKKHVGRSKAQVAKESVLQFYPKANIVAYHDSIMNPDYNVEFFRQFILVMNALDNRAARNHVNRMCLAADVPLIESGTAGYLGQVTTIKKGVTECYECHPKPTQRTFPGCTIRNTPSEPIHCIVWAKYLFNQLFGEEDADQEVSPDRADPEAAWEPTEAEARARASNEDGDIKRISTKEWAKSTGYDPVKLFTKLFKDDIRYLLTMDKLWRKRKPPVPLDWAEVQSQGEETNASDQQNEPQLGLKDQQVLDVKSYARLFSKSIETLRVHLAEKGDGAELIWDKDDPSAMDFVTSAANLRMHIFSMNMKSRFDIKSMAGNIIPAIATTNAVIAGLIVLEGLKILSGKIDQCRTIFLNKQPNPRKKLLVPCALDPPNPNCYVCASKPEVTVRLNVHKVTVLTLQDKIVKEKFAMVAPDVQIEDGKGTILISSEEGETEANNHKKLSEFGIRNGSRLQADDFLQDYTLLINILHSEDLGKDVEFEVVGDAPEKVGPKQAEDAAKSITNGSDDGAQPSTSTAQEQDDVLIVDSDEEDSSNNADVSEEERSRKRKLDEKENLSAKRSRIEQKEELDDVIALD
On to B2, for which, in the assay with TAP-tagged hnRNPA1, the binding entry is given as “binds”.

B3: 14-3-3θ (endogenous) (protein, UniProt P27348 1-245)
chain: MEKTELIQKAKLAEQAERYDDMATCMKAVTEQGAELSNEERNLLSVAYKNVVGGRRSAWRVISSIEQKTDTSDKKLQLIKDYREKVESELRSICTTVLELLDKYLIANATNPESKVFYLKMKGDYFRYLAEVACGDDRKQTIDNSQGAYQEAFDISKKEMQPTHPIRLGLALNFSVFYYEILNNPELACTLAKTAFDEAIAELDTLNEDSYKDSTLIMQLLRDNLTLWTSDSAGEECDAAEGAEN
For B3, the binding entry with TAP-tagged hnRNPA1 was “binds”.

B4: PDCD4 (endogenous) (protein, UniProt Q53EL6 1-469)
chain: MDVENEQILNVNPADPDNLSDSLFSGDEENAGTEEIKNEINGNWISASSINEARINAKAKRRLRKNSSRDSGRGDSVSDSGSDALRSGLTVPTSPKGRLLDRRSRSGKGRGLPKKGGAGGKGVWGTPGQVYDVEEVDVKDPNYDDDQENCVYETVVLPLDERAFEKTLTPIIQEYFEHGDTNEVAEMLRDLNLGEMKSGVPVLAVSLALEGKASHREMTSKLLSDLCGTVMSTTDVEKSFDKLLKDLPELALDTPRAPQLVGQFIARAVGDGILCNTYIDSYKGTVDCVQARAALDKATVLLSMSKGGKRKDSVWGSGGGQQSVNHLVKEIDMLLKEYLLSGDISEAEHCLKELEVPHFHHELVYEAIIMVLESTGESTFKMILDLLKSLWKSSTITVDQMKRGYERIYNEIPDINLDVPHSYSVLERFVEECFQAGIISKQLRDLCPSRGRKRFVSEGDGGRLKPESY
Consider B4, for which the binding result in assay [1] is on record as “binds”.
